In the supplement of paper PMC3682954:
Where a name gives a salt, the structure may show the parent alone. ± gives the standard deviation of the averaged measurements. The list shows a part of the results. Repeats are few or missing, and single values can be far off.

Tested on: RAW 264.7
Assay: HMGB1-induced TNF-alpha production relative to HMGB1-stimulated control; higher = more TNF-alpha secretion (less inhibition)
Conditions: stimulus: HMGB1 5 ug/ml, 18 h
[1] = compound concentration: 1 ug/ml

SMILES | HMGB1-induced TNF-alpha production [1] [%] | HMGB1-induced TNF-alpha production (compound concentration: 3 uM) [%]
COc1cc2c(cc1O)C[C@H]1c3c(cc(OC)c(O)c3-2)CCN1C [Isoboldine] | 75.7 | 
O=c1ccc2cc(O[C@@H]3O[C@H](CO)[C@@H](O)[C@H](O)[C@H]3O)c(O)cc2o1 [Esculin] | 50.7 | 
CN1CCc2cccc(Cl)c2CC1 |  | 117
COC(=O)[C@@H](N)CCCNC(=N)N[N+](=O)[O-] [NG-Nitro-L-arginine methyl ester hydrochloride] |  | 121
CN1Cc2c(ccc3c2OCO3)[C@@H]2[C@H]1c1cc3c(cc1C[C@@H]2O)OCO3 [(+)-Chelidonine monohydrate] | 76.3 | 
CCCC[N+]1(C)[C@H]2CC(OC(=O)C(CO)c3ccccc3)C[C@H]1[C@H]1O[C@H]12 (stereo not given in full) [Scopolamine N-butyl] |  | 95.7
CN[C@@H](C)[C@H](O)c1ccccc1 [Ephedrine] | 81.5 | 
CC[C@]1(O)CC[C@H]2[C@@H]3CCC4=CCCC[C@@H]4[C@H]3CC[C@@]21C [Ethylestrenol] |  | 103
CC(=O)O[C@H]1C[C@@H]2CC[C@@H]3[C@H](CC[C@@]4(C)[C@H]3C[C@H]([N+]3(C)CCCCC3)[C@@H]4OC(C)=O)[C@@]2(C)C[C@@H]1[N+]1(C)CCCCC1 [Pancuronium bromide] |  | 110 ± 6.2
CC(=O)O[C@H]1C[C@@H]2CC[C@@H]3[C@H](CC[C@@]4(C)[C@H]3C[C@H]([N+]3(C)CCCCC3)[C@@H]4OC(C)=O)[C@@]2(C)C[C@@H]1[N+]1(C)CCCCC1 |  | 85.6
CC(=O)O[C@H]1C[C@@H]2CC[C@@H]3[C@H](CC[C@@]4(C)[C@H]3C[C@H]([N+]3(C)CCCCC3)[C@@H]4OC(C)=O)[C@@]2(C)C[C@@H]1[N+]1(C)CCCCC1 [Pancuronium] |  | 108 ± 3.3
c1ccc(Cn2ccnc2)cc1 |  | 114
C[C@]12C[C@H]3S[C@H]3C[C@@H]1CC[C@@H]1[C@@H]2CC[C@]2(C)[C@@H](O)CC[C@@H]12 [Epitiostanol] |  | 98.5
NC(CCCCCP(=O)(O)O)C(=O)O (racemic) [(±)-2-Amino-7-phosphonoheptanoic acid] |  | 73.3
COP(=O)(OC)C(O)C(Cl)(Cl)Cl (stereo not given) |  | 94.4
COP(=O)(OC)C(O)C(Cl)(Cl)Cl (stereo not given) [Trichlorfon] |  | 90.9
CCCC(C)C1(CC)C(=O)NC(=O)NC1=O (stereo not given) [Pentobarbital] |  | 117
O=c1cccc2n1CC1CC2CN(CCCN=C=S)C1 (stereo not given) | 69.3 | 
C[C@@H]1O[C@H](C[N+](C)(C)C)C[C@H]1O (racemic) [(±)-Muscarine chloride] |  | 112
CP(=O)(O)C1=CCNCC1 |  | 105
O=c1cccc2n1CC1CC2CN(c2nc(N3CCCC3)nc(N3CCCC3)n2)C1 (stereo not given) | 65.3 | 
NC(=O)c1cc(N2CC2)c([N+](=O)[O-])cc1[N+](=O)[O-] |  | 81.3

Quoted at random: 4 records from the list, in no set order.
SMILES | HMGB1-induced TNF-alpha production [1] [%] | HMGB1-induced TNF-alpha production (compound concentration: 3 uM) [%]
CN1CCc2cccc(Cl)c2CC1 |  | 117
CC[C@]1(O)CC[C@H]2[C@@H]3CCC4=CCCC[C@@H]4[C@H]3CC[C@@]21C [Ethylestrenol] |  | 103
CCCC[N+]1(C)[C@H]2CC(OC(=O)C(CO)c3ccccc3)C[C@H]1[C@H]1O[C@H]12 (stereo not given in full) [Scopolamine N-butyl] |  | 95.7
O=c1cccc2n1CC1CC2CN(CCCN=C=S)C1 (stereo not given) | 69.3 | 

Going on with the list:

SMILES | HMGB1-induced TNF-alpha production [1] [%] | HMGB1-induced TNF-alpha production (compound concentration: 3 uM) [%]
C=CCN1CC[C@]23c4c5ccc(O)c4O[C@H]2C(=O)CC[C@@]3(O)[C@H]1C5 |  | 92.1
C=CCN1CC[C@]23c4c5ccc(O)c4O[C@H]2C(=O)CC[C@@]3(O)[C@H]1C5 [Naloxone hydrochloride] |  | 101 ± 33
C=CCN1CC[C@]23c4c5ccc(O)c4O[C@H]2C(=O)CC[C@@]3(O)[C@H]1C5 [Naloxone] |  | 84.7
C(#CCN1CCCC1)CN1CCCC1 [Tremorine dihydrochloride] |  | 65.7
CC[C@@H](C(=O)[C@@H](C)[C@@H](O)[C@H](C)[C@@H]1O[C@@H]([C@@H](CC)C(=O)O)CC[C@@H]1C)[C@H]1O[C@]2(C=C[C@@H](O)[C@]3(CC[C@@](C)([C@H]4CC[C@](O)(CC)[C@H](C)O4)O3)O2)[C@H](C)C[C@@H]1C |  | 132
COc1ccc2[nH]c3c(c2c1)CCNC3 [6-Methoxy-1,2,3,4-tetrahydro-9H-pyrido[3,4b] indole] |  | 93.3
Cc1cccc(C)c1NC(=O)CN1CCCC1=O [Nefiracetam] |  | 84.1
CS(=O)(=O)Nc1ccc(Cc2noc(-c3ccc4[nH]cc(CCN)c4c3)n2)cc1 |  | 109
NC(=O)CI [Iodoacetamide] |  | 69.3
C[C@]12CCC(=O)C=C1C=C[C@@H]1[C@@H]2CC[C@@]2(C)[C@H]1CC[C@@]2(O)CCC(=O)O |  | 89.8
C[C@]12CCC(=O)C=C1C=C[C@@H]1[C@@H]2CC[C@@]2(C)[C@H]1CC[C@@]2(O)CCC(=O)O [Canrenoic acid potassium salt] |  | 67.5
S=C=NCc1ccccc1 |  | 29.4 ± 17
COP(=O)(OC)OC=C(Cl)Cl |  | 85 ± 6.2
CN1CC[C@]2(CCN3CCc4c(oc5ccccc45)[C@@H]3C2)N(C)C1=O |  | 109
N#CC(C#N)=Cc1ccc(O)c(O)c1 [Tyrphostin 23] |  | 105
CC(C)[C@H]1C(=O)N2CCC[C@H]2[C@]2(O)O[C@](NC(=O)[C@@H]3C=C4c5cccc6[nH]cc(c56)C[C@H]4N(C)C3)(C(C)C)C(=O)N12 [Ergocornine] | 54.2 | 
CC(=O)N1C[C@@H]2C[C@H](C1)c1cccc(=O)n1C2 | 77.9 | 
NC1=NC(=O)C(c2ccccc2)O1 (stereo not given) [Pemoline] |  | 98
CCOC(=O)C1(c2ccccc2)CCN(CCC(C#N)(c2ccccc2)c2ccccc2)CC1 |  | 93.3
CC[C@@H]1C=CC=CC[C@H](C)[C@@H](O)[C@@H](C)C(=O)[C@H](C)[C@@H](O)[C@H](C)C(=O)[C@H](C)[C@@H](O)[C@H](C)C=CC(=O)O[C@H]2[C@@H](C)[C@@H](CC1)O[C@@]1(CC[C@@H](C)[C@@H](C[C@H](C)O)O1)[C@@H]2C |  | 93.2
CC(=O)[C@H]1CC[C@H]2[C@@H]3CC[C@H]4C[C@](C)(O)CC[C@]4(C)[C@H]3CC[C@]12C [Ganaxolone] |  | 82.9
CN1[C@@H]2C[C@@H](OC(=O)[C@H](CO)c3ccccc3)C[C@H]1[C@@H]1O[C@@H]12 [(-)-Scopolamine hydrobromide] |  | 110

SMILES | HMGB1-induced TNF-alpha production [1] [%] | HMGB1-induced TNF-alpha production (compound concentration: 3 uM) [%]
CN1[C@@H]2C[C@@H](OC(=O)[C@H](CO)c3ccccc3)C[C@H]1[C@@H]1O[C@@H]12 [Scopolamine] |  | 97.5
CN1[C@@H]2C[C@@H](OC(=O)[C@H](CO)c3ccccc3)C[C@H]1[C@@H]1O[C@@H]12 |  | 94.2
CN1[C@@H]2C[C@@H](OC(=O)[C@H](CO)c3ccccc3)C[C@H]1[C@@H]1O[C@@H]12 [Scopolamine hydrochloride] |  | 112
C#C[C@]1(O)CC[C@H]2[C@@H]3CCC4=CC(=O)CCC4=C3C=C[C@@]21CC [Gestrinone] |  | 104 ± 8.2
CN[C@@H](C)[C@@H](O)c1ccccc1 |  | 87
[O-][n+]1ccccc1[S-].[O-][n+]1ccccc1[S-].[Zn+2] |  | 95.8
CN1C[C@H](C(=O)N[C@]2(C)O[C@@]3(O)[C@@H]4CCCN4C(=O)[C@H](Cc4ccccc4)N3C2=O)C=C2c3cccc4[nH]cc(c34)C[C@H]21 [Ergotamine] |  | 87.6
CN1C[C@H](C(=O)N[C@]2(C)O[C@@]3(O)[C@@H]4CCCN4C(=O)[C@H](Cc4ccccc4)N3C2=O)C=C2c3cccc4[nH]cc(c34)C[C@H]21 |  | 82.9
NCC(CC(=O)O)c1ccc(Cl)cc1 (racemic) [Baclofen (R,S)] |  | 91.1
NCC(CC(=O)O)c1ccc(Cl)cc1 (racemic) [(±)-Baclofen] |  | 68.5
N[C@@H]1C[C@H]1c1ccccc1 [Tranylcypromine hydrochloride] |  | 102 ± 3.4
CCCCCCC1C(=O)OC(C)C(NC(=O)c2cccc(NC=O)c2O)C(=O)OC(C)C1OC(=O)CC(C)C (stereo not given) [Animicin A] | 79.7 | 
O=C1CC[C@@]2(O)[C@H]3Cc4ccc(O)c5c4[C@@]2(CCN3CC2CC2)[C@H]1O5 [Naltrexone] |  | 127
O=C1CC[C@@]2(O)[C@H]3Cc4ccc(O)c5c4[C@@]2(CCN3CC2CC2)[C@H]1O5 [Naltrexone hydrochloride] |  | 125
O=C1CC[C@@]2(O)[C@H]3Cc4ccc(O)c5c4[C@@]2(CCN3CC2CC2)[C@H]1O5 [Naltrexone hydrochloride dihydrate] |  | 74
O=C1CC[C@@]2(O)[C@H]3Cc4ccc(O)c5c4[C@@]2(CCN3CC2CC2)[C@H]1O5 |  | 93.3
NC(=O)c1cc([N+](=O)[O-])cc([N+](=O)[O-])c1 |  | 89.5 ± 8.3
O=C1Nc2ccc(Cl)cc2C(c2ccccc2Cl)=NC1O (stereo not given) [Lorazepam] |  | 49.9
CN1CCc2cc(O)cc3c2[C@H]1Cc1ccc(O)c(O)c1-3 [R(-)-2,10,11-Trihydroxyaporphine hybrobromide] |  | 76.3
CN[C@@H]1[C@@H](O)[C@@H](O[C@@H]2[C@@H](O)[C@H](O[C@H]3O[C@H](CN)CC[C@H]3N)[C@@H](N)C[C@H]2N)OC[C@]1(C)O.CN[C@@H]1[C@@H](O)[C@@H](O[C@@H]2[C@@H](O)[C@H](O[C@H]3O[C@H]([C@@H](C)N)CC[C@H]3N)[C@@H](N)C[C@H]2N)OC[C@]1(C)O.CN[C@@H]1[C@@H](O)[C@@H](O[C@@H]2[C@@H](O)[C@H](O[C@H]3O[C@H]([C@@H](C)NC)CC[C@H]3N)[C@@H](N)C[C@H]2N)OC[C@]1(C)O [Gentamicine sulfate] |  | 95.1
CN[C@@H]1[C@@H](O)[C@@H](O[C@@H]2[C@@H](O)[C@H](O[C@H]3O[C@H](CN)CC[C@H]3N)[C@@H](N)C[C@H]2N)OC[C@]1(C)O.CN[C@@H]1[C@@H](O)[C@@H](O[C@@H]2[C@@H](O)[C@H](O[C@H]3O[C@H]([C@@H](C)N)CC[C@H]3N)[C@@H](N)C[C@H]2N)OC[C@]1(C)O.CN[C@@H]1[C@@H](O)[C@@H](O[C@@H]2[C@@H](O)[C@H](O[C@H]3O[C@H]([C@@H](C)NC)CC[C@H]3N)[C@@H](N)C[C@H]2N)OC[C@]1(C)O |  | 82.3
